The supplement of paper PMC12823440, “Inhibitors supercharge kinase turnover through native proteolytic circuits” (Nature, 2025)
Where a name gives a salt, the structure may show the parent alone. This is one part of the list. Hit calls seldom repeat between salt and free forms of one compound.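 In K562 cells expressing nanoluciferase-fused kinases, luminescence was recorded at 4 h intervals between 2 and 18 h, normalized as percent of control with DMSO at 100% and a positive control at 0%. A significant (2 sigma) signal drop marks a time point as decreased. The authors' rule for a hit is not shown and takes in more than the number of time points.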

Chains of the proteins cited; added tags and fusions are not shown. Lines headed by an entry give the natural chain unless they say otherwise; changes in a name come on top.
UniProt Q9UQM7, whole entry: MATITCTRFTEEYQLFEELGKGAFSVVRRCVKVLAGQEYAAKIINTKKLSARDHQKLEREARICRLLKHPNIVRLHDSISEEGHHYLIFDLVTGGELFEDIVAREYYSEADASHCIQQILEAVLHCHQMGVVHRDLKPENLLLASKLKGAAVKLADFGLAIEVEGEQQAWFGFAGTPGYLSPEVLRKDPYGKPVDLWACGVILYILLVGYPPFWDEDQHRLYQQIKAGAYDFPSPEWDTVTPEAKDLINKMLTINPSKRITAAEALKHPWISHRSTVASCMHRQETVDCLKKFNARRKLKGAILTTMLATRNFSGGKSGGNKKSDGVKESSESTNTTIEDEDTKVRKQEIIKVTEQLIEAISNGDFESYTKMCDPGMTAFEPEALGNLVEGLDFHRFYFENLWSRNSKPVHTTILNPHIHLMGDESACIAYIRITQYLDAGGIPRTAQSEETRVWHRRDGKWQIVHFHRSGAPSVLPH
UniProt Q13555: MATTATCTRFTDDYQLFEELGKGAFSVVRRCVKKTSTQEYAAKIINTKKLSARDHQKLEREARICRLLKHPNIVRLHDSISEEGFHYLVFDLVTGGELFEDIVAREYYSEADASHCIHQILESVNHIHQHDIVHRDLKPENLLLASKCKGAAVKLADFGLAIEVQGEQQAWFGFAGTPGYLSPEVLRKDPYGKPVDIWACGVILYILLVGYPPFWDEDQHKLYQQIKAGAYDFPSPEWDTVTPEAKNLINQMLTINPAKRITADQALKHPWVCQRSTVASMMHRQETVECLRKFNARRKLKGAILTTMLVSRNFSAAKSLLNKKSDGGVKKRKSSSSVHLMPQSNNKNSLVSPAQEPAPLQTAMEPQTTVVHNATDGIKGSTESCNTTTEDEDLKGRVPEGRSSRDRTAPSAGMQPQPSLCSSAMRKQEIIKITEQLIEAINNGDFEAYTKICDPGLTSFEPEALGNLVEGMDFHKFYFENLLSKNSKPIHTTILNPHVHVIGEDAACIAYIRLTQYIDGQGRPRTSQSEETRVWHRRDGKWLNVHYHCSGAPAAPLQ
UniProt Q15131: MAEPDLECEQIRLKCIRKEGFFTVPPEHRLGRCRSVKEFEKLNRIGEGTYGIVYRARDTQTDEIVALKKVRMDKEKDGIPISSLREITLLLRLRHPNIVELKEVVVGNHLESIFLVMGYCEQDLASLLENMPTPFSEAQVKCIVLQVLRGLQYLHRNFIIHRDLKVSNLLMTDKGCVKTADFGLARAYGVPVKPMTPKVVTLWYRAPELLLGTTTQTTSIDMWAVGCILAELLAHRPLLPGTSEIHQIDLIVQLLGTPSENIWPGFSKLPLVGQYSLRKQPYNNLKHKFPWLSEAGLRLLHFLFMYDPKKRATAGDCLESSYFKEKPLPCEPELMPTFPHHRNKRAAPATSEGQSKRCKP
UniProt Q00526: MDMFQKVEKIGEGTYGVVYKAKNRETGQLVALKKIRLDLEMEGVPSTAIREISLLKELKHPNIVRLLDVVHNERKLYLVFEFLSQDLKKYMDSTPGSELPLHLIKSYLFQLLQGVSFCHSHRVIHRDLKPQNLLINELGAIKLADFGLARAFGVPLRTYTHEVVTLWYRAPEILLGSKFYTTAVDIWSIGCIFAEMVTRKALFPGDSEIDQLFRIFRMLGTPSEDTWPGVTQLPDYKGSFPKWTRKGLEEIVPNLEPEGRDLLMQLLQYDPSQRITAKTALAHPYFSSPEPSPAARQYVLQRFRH
UniProt Q00535, whole entry, looked up: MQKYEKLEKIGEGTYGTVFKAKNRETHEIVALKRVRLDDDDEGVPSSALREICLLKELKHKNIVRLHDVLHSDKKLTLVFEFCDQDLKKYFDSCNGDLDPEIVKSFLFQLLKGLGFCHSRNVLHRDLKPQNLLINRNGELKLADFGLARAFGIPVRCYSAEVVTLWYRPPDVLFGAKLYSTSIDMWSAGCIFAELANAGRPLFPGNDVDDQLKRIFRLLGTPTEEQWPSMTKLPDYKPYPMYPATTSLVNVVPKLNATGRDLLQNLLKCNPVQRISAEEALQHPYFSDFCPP
UniProt Q00534, whole entry: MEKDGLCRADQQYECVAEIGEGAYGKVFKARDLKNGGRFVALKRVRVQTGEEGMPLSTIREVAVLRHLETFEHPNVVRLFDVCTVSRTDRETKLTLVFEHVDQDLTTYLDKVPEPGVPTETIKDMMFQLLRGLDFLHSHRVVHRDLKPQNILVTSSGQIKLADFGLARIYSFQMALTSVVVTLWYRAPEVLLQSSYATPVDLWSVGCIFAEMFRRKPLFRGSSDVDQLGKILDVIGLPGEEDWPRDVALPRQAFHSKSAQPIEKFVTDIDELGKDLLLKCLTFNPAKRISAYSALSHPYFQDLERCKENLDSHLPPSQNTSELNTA
UniProt O96017, whole entry: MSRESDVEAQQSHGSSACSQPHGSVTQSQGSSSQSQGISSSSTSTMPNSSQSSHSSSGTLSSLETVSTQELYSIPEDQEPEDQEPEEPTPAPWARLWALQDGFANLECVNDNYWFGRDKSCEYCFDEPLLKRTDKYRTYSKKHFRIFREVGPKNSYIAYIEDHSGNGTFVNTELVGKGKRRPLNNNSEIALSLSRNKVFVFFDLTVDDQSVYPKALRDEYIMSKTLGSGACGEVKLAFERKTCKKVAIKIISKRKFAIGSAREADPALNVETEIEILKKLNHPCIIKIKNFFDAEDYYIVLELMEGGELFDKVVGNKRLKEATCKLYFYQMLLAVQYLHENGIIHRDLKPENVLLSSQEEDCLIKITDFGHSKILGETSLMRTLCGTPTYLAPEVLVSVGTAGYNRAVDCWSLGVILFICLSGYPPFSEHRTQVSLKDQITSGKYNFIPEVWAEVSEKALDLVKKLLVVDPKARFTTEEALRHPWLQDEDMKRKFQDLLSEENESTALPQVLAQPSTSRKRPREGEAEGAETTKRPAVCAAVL
UniProt P07333, whole entry: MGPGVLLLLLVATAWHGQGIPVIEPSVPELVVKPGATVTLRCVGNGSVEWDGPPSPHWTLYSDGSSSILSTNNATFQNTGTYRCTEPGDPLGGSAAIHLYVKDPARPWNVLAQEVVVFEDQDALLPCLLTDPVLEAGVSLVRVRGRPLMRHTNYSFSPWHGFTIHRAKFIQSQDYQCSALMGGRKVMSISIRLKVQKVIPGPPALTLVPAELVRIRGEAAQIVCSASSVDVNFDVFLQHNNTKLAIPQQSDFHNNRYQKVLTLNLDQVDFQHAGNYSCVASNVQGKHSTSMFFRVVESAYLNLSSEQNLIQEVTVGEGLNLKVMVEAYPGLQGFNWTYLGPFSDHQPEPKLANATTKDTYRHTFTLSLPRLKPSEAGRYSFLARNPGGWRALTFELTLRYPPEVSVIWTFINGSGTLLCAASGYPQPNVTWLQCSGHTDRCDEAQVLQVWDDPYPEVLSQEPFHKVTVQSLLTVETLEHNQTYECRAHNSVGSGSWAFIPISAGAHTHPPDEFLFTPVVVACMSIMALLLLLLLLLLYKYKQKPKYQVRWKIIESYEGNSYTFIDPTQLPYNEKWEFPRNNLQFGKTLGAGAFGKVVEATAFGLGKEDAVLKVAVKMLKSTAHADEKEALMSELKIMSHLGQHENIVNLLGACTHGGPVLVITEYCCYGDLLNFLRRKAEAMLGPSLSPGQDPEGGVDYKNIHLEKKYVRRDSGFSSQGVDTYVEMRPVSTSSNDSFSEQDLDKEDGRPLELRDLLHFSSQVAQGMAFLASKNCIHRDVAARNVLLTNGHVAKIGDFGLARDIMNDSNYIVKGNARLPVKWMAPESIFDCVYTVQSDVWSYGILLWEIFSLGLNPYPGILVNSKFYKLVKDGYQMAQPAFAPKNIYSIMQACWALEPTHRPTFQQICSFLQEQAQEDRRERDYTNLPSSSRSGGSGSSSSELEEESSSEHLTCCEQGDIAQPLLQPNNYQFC
UniProt P41240: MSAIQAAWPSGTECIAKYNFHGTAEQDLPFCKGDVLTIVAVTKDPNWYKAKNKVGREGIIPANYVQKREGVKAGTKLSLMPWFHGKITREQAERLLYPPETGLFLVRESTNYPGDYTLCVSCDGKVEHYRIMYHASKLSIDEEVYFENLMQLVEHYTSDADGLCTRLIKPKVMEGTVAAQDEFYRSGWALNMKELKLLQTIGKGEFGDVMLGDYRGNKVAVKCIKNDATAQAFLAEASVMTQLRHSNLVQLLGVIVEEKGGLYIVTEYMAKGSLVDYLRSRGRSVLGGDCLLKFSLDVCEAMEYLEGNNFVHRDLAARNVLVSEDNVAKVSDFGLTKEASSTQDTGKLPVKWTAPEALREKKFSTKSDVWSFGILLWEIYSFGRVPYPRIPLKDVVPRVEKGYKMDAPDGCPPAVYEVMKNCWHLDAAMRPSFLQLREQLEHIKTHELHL

Key:
Experiment in all cases: number of time points (of 5) at which kinase-Nluc abundance scored as decreased, DMSO-normalised (count); higher = more persistent destabilization
Conditions in all cases: K562; 2-18 h
CAMK2A = CAMK2A (UniProt Q9UQM7)
CAMK2G = CAMK2G (UniProt Q13555)
CDK10 = CDK10 (UniProt Q15131)
CDK2 = CDK2 (UniProt P24941)
CDK3 = CDK3 (UniProt Q00526)
CDK5 = CDK5 (UniProt Q00535)
CDK6 = CDK6 (UniProt Q00534)
CHEK2 = CHEK2 (UniProt O96017)
CSF1R = CSF1R (UniProt P07333)
CSK = CSK (UniProt P41240)

Measured: number of time points

Oc1ccc(/C=C/c2cc(O)cc(O)c2)cc1 [Resveratrol] (10 µM)
0: all assays above

N#Cc1ccnc(Nc2cc(C3CCN(C4COC4)CC3)cc(N3CCC(F)(F)C3)n2)c1 (2.5 µM)
0: all assays above

COc1cc(-c2cn[nH]c2)ccc1C(=O)Nc1ccc2c(c1)CCNCC2 (10 µM)
0: all assays above

O=C(O)c1cc(=O)c2c(OCC(O)COc3cccc4oc(C(=O)O)cc(=O)c34)cccc2o1 [Cromolyn (sodium)] (10 µM)
0: all assays above

O=[N+]([O-])c1ccc2c(c1)S(=O)(=O)C=C2 [Stattic] (2.5 µM)
0: all assays above

NC1=NCCN1CC(=O)O [Cyclocreatine] (10 µM)
0: all assays above

O=C(Nc1nc(=O)n(Cc2ccc(Cl)cc2)s1)c1ccc(Cl)cc1 (10 µM)
0: all assays above

CNc1cc(Nc2cccn(-c3ccccn3)c2=O)nn2c(C(=O)N[C@@H]3C[C@@H]3F)cnc12 (2.5 µM)
1: CDK6
0: all other assays above

Cn1cc(-c2cnc3cnn(S(=O)(=O)c4cnc5ccc(-c6cnn(C)c6)cn45)c3c2)cn1 [Glumetinib] (10 µM)
0: all assays above

N[C@@H](CCC(=O)O)C(=O)N[C@@H](Cc1c[nH]c2ccccc12)C(=O)O [Oglufanide] (10 µM)
0: all assays above

O=C1NC(=O)/C(=C/c2ccc3nccc(-c4ccncc4)c3c2)S1 (10 µM)
0: all assays above

Cc1cccc2c3c(ccc12)C(=O)C1=C(OCC1C)C3=O (stereo not given) [Dihydroisotanshinone I] (2.5 µM)
0: all assays above

COc1ccc2cc3[n+](cc2c1OC)CCc1cc(O)c(O)cc1-3 [Demethyleneberberine] (10 µM)
0: all assays above

NC(=S)n1[nH]c(-c2ccc([N+](=O)[O-])cc2)c(N=Nc2cccc(Cl)c2)c1=O (2.5 µM)
0: all assays above

CC(C)S(=O)(=O)c1ccc2nccc(Nc3ccc4scnc4c3)c2c1 (10 µM)
0: all assays above

O=C(NCc1cccc(O)c1)Nc1nc(-c2ccncc2)cs1 (10 µM)
0: all assays above

CC(C)(C[C@H](N)C(=O)O)C(F)F [NV-5138 (hydrochloride)] (10 µM)
0: all assays above

CN(c1ccc(NC(=O)Nc2ccc(OC(F)(F)F)cc2)cc1)c1ccnc(Nc2cccc(S(N)(=O)=O)c2)n1 (2.5 µM)
2: CHEK2
3: CDK10 | CSF1R
1: CAMK2A | CDK5
0: all other assays above

Cc1ccc(NC(=O)c2ccnc(C(F)(F)F)c2)cc1-c1cc(OCCO)nc(N2CCOCC2)c1 (10 µM)
0: all assays above

C=CC(=O)N1C(=O)CC(c2ccc(F)cc2)Sc2ccccc21 (stereo not drawn) [GSK-3β inhibitor 3] (10 µM)
3: CHEK2
0: all other assays above

C=CC(=O)N1CCC[C@H](n2c(=O)n(-c3ccc(Oc4ccccc4)cc3)c3c(N)ncnc32)C1 [ONO-4059 (analog)] (10 µM)
0: all assays above

c1cc(NC2CCNCC2)nc(-c2cnc3ccccn23)c1 [IRAK inhibitor 1] (10 µM)
0: all assays above

CC(C)N1CCN(c2ccc(Nc3ncc4cc5n(c4n3)C3(CCCCC3)CNC5=O)nc2)CC1 [Lerociclib (dihydrochloride)] (2 µM)
0: all assays above

COc1cc(N2CCOCC2)ccc1Nc1ncc(Cl)c(Nc2ccccc2NS(C)(=O)=O)n1 (2.5 µM)
0: all assays above

Random excerpt: 5 compounds from above, in no set order.
CC(C)(C[C@H](N)C(=O)O)C(F)F [NV-5138 (hydrochloride)] (10 µM)
0: all assays above

CN(c1ccc(NC(=O)Nc2ccc(OC(F)(F)F)cc2)cc1)c1ccnc(Nc2cccc(S(N)(=O)=O)c2)n1 (2.5 µM)
2: CHEK2
3: CDK10 | CSF1R
1: CAMK2A | CDK5
0: all other assays above

Cc1ccc(NC(=O)c2ccnc(C(F)(F)F)c2)cc1-c1cc(OCCO)nc(N2CCOCC2)c1 (10 µM)
0: all assays above

COc1cc(N2CCOCC2)ccc1Nc1ncc(Cl)c(Nc2ccccc2NS(C)(=O)=O)n1 (2.5 µM)
0: all assays above

CC(C)N1CCN(c2ccc(Nc3ncc4cc5n(c4n3)C3(CCCCC3)CNC5=O)nc2)CC1 [Lerociclib (dihydrochloride)] (2 µM)
0: all assays above

The list continues.

COc1ccc(-c2coc3cc(O)ccc3c2=O)cc1 [Formononetin] (10 µM)
0: all assays above

Cc1cnc(NC2CCOCC2)nc1-n1cnc(C(=O)N[C@H](CN)c2cc(F)cc(Cl)c2)c1 (10 µM)
0: all assays above

CCc1cccc(CC)c1NC(=O)N1Cc2[nH]nc(NC(=O)c3ccc(N4CCN(C)CC4)cc3)c2C1 (2.5 µM)
3: CAMK2G
1: CDK10 | CHEK2
2: CSF1R
0: all other assays above

CCc1cncnc1N1CCN(Cc2nc3ccc(C(F)(F)F)cc3[nH]2)CC1 (10 µM)
0: all assays above

CC/C(=N\NC(=O)c1ccnc(NCCCN2CCOCC2)c1)c1ccc(Cl)cc1O (2.5 µM)
0: all assays above

CC(=O)c1c(C)c2cnc(Nc3ccc(N4CCN(C(=O)CNc5cccc6c5C(=O)N(C5CCC(=O)NC5=O)C6=O)CC4)cn3)nc2n(C2CCCC2)c1=O (stereo not given) (10 µM)
4: CDK6
0: all other assays above

Nc1c(C(=O)NCc2ccc(C(=O)NCCCC3CCCCC3)cc2)cnn1-c1ccccc1 (2.5 µM)
0: all assays above

Cn1cnc([N+](=O)[O-])c1C[N+](C)(C)C/C=C/C(=O)Nc1cc2c(Nc3ccc(Cl)c(Br)c3)ncnc2cn1 [Tarloxotinib (bromide)] (10 µM)
0: all assays above

COc1ccccc1C(=O)/C=C/c1ccccc1C(=O)O (10 µM)
0: all assays above

Cc1cnc(-c2ccc(-c3ccc(NC(=O)Nc4cccc(C(F)(F)F)c4)cc3F)c3c2C(=O)NC3)[nH]1 (10 µM)
0: all assays above

CN(C)c1nc2c(Br)c(Br)c(Br)c(Br)c2[nH]1 (10 µM)
0: all assays above

CC(C)(O)[C@H]1CC[C@H](Nc2ccc3ncc(-c4cccc(C(F)(F)F)c4)n3n2)CC1 (10 µM)
0: all assays above

COc1cc(N(C)CCN(C)C)c(N)cc1Nc1nccc(-c2cn(C)c3ccccc23)n1 [Mutated EGFR-IN-1] (10 µM)
0: all assays above

Cn1ncc2cc(-c3cnc(N)c(Cl)c3N3CCC4(CCNC4=O)CC3)ccc21 (10 µM)
0: all assays above

N#Cc1c2nc3ccccc3nc2n2ccc(NC(=O)c3cccs3)cc12 (10 µM)
0: all assays above

Cc1cc(Nc2ncnc3ccc(-c4ccc(CNCCS(C)(=O)=O)o4)cc23)ccc1Oc1ccn2ncnc2c1 [ARRY-380 (analog )] (2.5 µM)
0: all assays above

COc1ccc(-c2c(C)nn3c(NCCN4CCOCC4)cc(C)nc23)cc1OC (10 µM)
0: all assays above

CC(C)C[C@@H](C(=O)Nc1ccn(C[C@@H](O)CO)n1)N1CC(Oc2ccccc2Cl)=CC1=O [Dorzagliatin] (10 µM)
0: all assays above

O=C1/C(=C\c2ccc(Cl)cc2)C=C(c2ccccc2)N1c1ccc(O)cc1 (2.5 µM)
0: all assays above

Oc1ccc(/C=C/c2cc(O)cc(F)c2)cc1 [Resveratrol analog 1] (10 µM)
0: all assays above

O=[N+]([O-])c1ccc(Nc2nc(N3CCOCC3)nc(N3CCOCC3)n2)cc1 (10 µM)
0: all assays above

O=C(N[C@@H](C1CC1)C(F)(F)F)c1cc(-c2cnn3cc(-c4ccc(F)cc4)cnc23)cs1 (10 µM)
0: all assays above

Three compounds already listed, ordered by length of the SMILES, rising:
O=C1/C(=C\c2ccc(Cl)cc2)C=C(c2ccccc2)N1c1ccc(O)cc1 (2.5 µM)
0: all assays above

O=[N+]([O-])c1ccc(Nc2nc(N3CCOCC3)nc(N3CCOCC3)n2)cc1 (10 µM)
0: all assays above

CC(C)C[C@@H](C(=O)Nc1ccn(C[C@@H](O)CO)n1)N1CC(Oc2ccccc2Cl)=CC1=O [Dorzagliatin] (10 µM)
0: all assays above

Carrying on:

COc1ncccc1-c1cnn2ccc(N3CCN(C(=O)OC(C)C)CC3)nc12 (10 µM)
0: all assays above

Oc1cc(O)c2c(c1)OC1(c3ccc(O)c(O)c3)Oc3cc(O)c4c(c3C2C1O)OC(c1ccc(O)c(O)c1)C(O)C4 (stereo not given) [Procyanidin A1] (10 µM)
0: all assays above

C=CC(=O)Nc1cccc(-c2cccc3cnc(Nc4ccc(N5CCN(CCO)CC5)c(F)c4F)nc23)c1 [Olafertinib] (2.5 µM)
0: all assays above

CN(C)CCC=C1c2ccccc2CCc2ccccc21 [Amitriptyline (hydrochloride)] (2.5 µM)
0: all assays above

CC(=O)N1CCC(c2cc(-c3ccc(NC(=O)c4cccn(-c5ccc(F)cc5)c4=O)cc3F)c3c(N)ncnn23)CC1 (0.5 µM)
0: all assays above

CCN(CC)c1ccc2cc(-c3nc4cc(C)ccc4o3)c(=O)oc2c1 (10 µM)
0: all assays above

Cn1cc(-c2c[nH]c3ncnc(N4CCOCC4)c23)cc1C#N (10 µM)
0: all assays above

CC(C)CNc1ccnc(NCc2csc(-c3ccccc3)n2)n1 [KHS101 hydrochloride] (2.5 µM)
0: all assays above

C=CCc1ccc(O)c(-c2ccc(O)c(CC=C)c2)c1 [Honokiol] (10 µM)
0: all assays above

O=C1O[C@H]([C@@H](O)CO)C(O)=C1OP(=O)(O)O [2-Phospho-L-ascorbic acid (trisodium)] (10 µM)
0: all assays above

Cc1ccc(NC(=O)c2ccc(CN(CCN(C)C)C(=O)c3cccnc3)cc2)cc1Nc1nccc(-c2cccnc2)n1 [PDGFRα kinase inhibitor 1] (10 µM)
0: all assays above

Cc1cc(Nc2nc(CC3(C(=O)O)CCN(C(=O)c4cccc(Cl)c4Cl)CC3)ccc2F)n[nH]1 (10 µM)
1: CHEK2
0: all other assays above

NC(=O)c1cnc2[nH]ccc2c1N[C@@H]1[C@@H]2CC3C[C@H]1C[C@@](O)(C3)C2 [Peficitinib] (10 µM)
3: CHEK2
0: all other assays above

COc1cc(/C=C/C(=O)N2CCC=CC2=O)cc(OC)c1OC [Piperlongumine] (2.5 µM)
4: CHEK2
0: all other assays above

CNc1nc(Nc2ccc(C(=O)N3CCOCC3)cc2OC)ncc1Cl (2.5 µM)
0: all assays above

CN1CC[C@@H](c2c(O)cc(O)c3c(=O)cc(-c4ccc(C(F)(F)F)cc4Cl)oc23)[C@@H]1CO [Voruciclib (hydrochloride)] (10 µM)
0: all assays above

COc1ccc(/C=C/C(=O)C2(C(=O)/C=C/c3ccc(OC)c(OC)c3)CCCCC2)cc1OC (2.5 µM)
0: all assays above

Nc1ncnc2c1c(COc1cccc(Cl)c1)nn2C1CCOCC1 (10 µM)
0: all assays above

O=C(NC1CCOCC1)c1ccc(-c2cc(-c3c[nH]nc3-c3ccccn3)ccn2)cc1 (10 µM)
0: all assays above

Cc1nn(C)c2c1C(c1ccc(C(F)(F)F)cc1)C(C#N)=C(N)O2 (stereo not given) (10 µM)
0: all assays above

Cc1cc2sc(NC(=O)Cc3ccccc3)nc2cc1Cl (10 µM)
0: all assays above

Cc1nc(-c2cnn(C)c2)nc2c1[nH]c1ncc(-c3ccc(N4CCN(C)CC4)cc3)cc12 [GNE 220 (hydrochloride)] (10 µM)
0: all assays above

C[C@H](NC(=O)[C@H]1NCC[C@@H]1O)c1ccc(-c2noc(CCC3CCCC3)n2)cc1 (10 µM)
0: all assays above

COCCNc1cc(NC(=O)N2CCCc3cc(CN4CCN(C)CC4=O)c(C=O)nc32)ncc1C#N [Roblitinib] (10 µM)
0: all assays above

CNC(=O)c1ccccc1Oc1nc(Nc2cc(OC)c(OC)c(OC)c2)ncc1Br (2.5 µM)
0: all assays above

CC(C)(C)n1nc(Cc2ccccc2O)c2c(N)ncnc21 (10 µM)
1: CHEK2
0: all other assays above

C=C[C@@](C)(/C=C/c1ccc(O)cc1)CCC=C(C)C [Bakuchiol] (10 µM)
0: all assays above

COc1nn(C)cc1Nc1nccc(-c2c[nH]c3c(NC(=O)[C@@H](C)N4CCN(C)CC4)cccc23)n1 (10 µM)
0: all assays above

C=CC(=O)Nc1cc(Nc2nccc(-n3cc(CN(C)C)c(-c4ccccc4)n3)n2)c(OC)cc1N1CCOCC1 [Lazertinib] (10 µM)
0: all assays above
